Key:
Type in all cases: cell-based, human
CAKI-1 = experiment: NCI 60 cell line screen (SRB), Renal Cancer
Text: (§1) The operation of this screen utilizes 60 different human tumor cell lines, representing leukemia, melanoma and cancers of the lung, colon, brain, ovary, breast, prostate, and kidney. The aim is to prioritize for further evaluation, synthetic compounds or natural product samples showing selective growth inhibition or cell killing of particular tumor cell lines. This screen is unique in that the complexity of a 60 cell line dose response produced by a given compound results in a biological response pattern which can be utilized in pattern recognition algorithms. Using these algorithms, it is possible to assign a putative mechanism of action to a test compound, or to determine that the response pattern is unique and not similar to that of any of the standard prototype compounds included in the NCl database (see DTP Overview tab). In addition, following characterization of various cellular molecular targets in the 60 cell lines, it may be possible to select compounds most likely to interact with a specific molecular target.
(§2) The human tumor cell lines of the cancer screening panel are grown in RPMI 1640 medium containing 5% fetal bovine serum and 2 mM L-glutamine. For a typical screening experiment, cells are inoculated into 96 well microtiter plates in 100 μL at plating densities ranging from 5,000 to 40,000 cells/well depending on the doubling time of individual cell lines. After cell inoculation, the microtiter plates are incubated at 37° C., 5% CO2, 95% air and 100% relative humidity for 24 h prior to addition of experimental drugs.
(§3) After 24 h, two plates of each cell line are fixed in situ with TCA, to represent a measurement of the cell population for each cell line at the time of drug addition (Tz). Experimental drugs are solubilized in dimethyl sulfoxide at 400-fold the desired final maximum test concentration and stored frozen prior to use. At the time of drug addition, an aliquot of frozen concentrate is thawed and diluted to twice the desired final maximum test concentration with complete medium containing 50 μg/ml gentamicin. Additional four, 10-fold or ½ log serial dilutions are made to provide a total of five drug concentrations plus control. Aliquots of 100 μl of these different drug dilutions are added to the appropriate microtiter wells already containing 100 μl of medium, resulting in the required final drug concentrations.
(§4) Following drug addition, the plates are incubated for an additional 48 h at 37° C., 5% CO2, 95% air, and 100% relative humidity. For adherent cells, the assay is terminated by the addition of cold TCA. Cells are fixed in situ by the gentle addition of 50 μl of cold 50% (w/v) TCA (final concentration, 10% TCA) and incubated for 60 minutes at 4° C. The supernatant is discarded, and the plates are washed five times with tap water and air dried. Sulforhodamine B (SRB) solution (100 μl) at 0.4% (w/v) in 1% acetic acid is added to each well, and plates are incubated for 10 minutes at room temperature. After staining, unbound dye is removed by washing five times with 1% acetic acid and the plates are air dried. Bound stain is subsequently solubilized with 10 mM trizma base, and the absorbance is read on an automated plate reader at a wavelength of 515 nm. For suspension cells, the methodology is the same except that the assay is terminated by fixing settled cells at the bottom of the wells by gently adding 50 μl of 80% TCA (final concentration, 16% TCA). Using the seven absorbance measurements [time zero, (Tz), control growth, (C), and test growth in the presence of drug at the five concentration levels (Ti)], the percentage growth is calculated at each of the drug concentrations levels. Percentage growth inhibition is calculated as: [(Ti−Tz)/(C−Tz)]×100 for concentrations for which Ti>/=Tz [(Ti−Tz)/Tz]×100 for concentrations for which Ti<Tz.
(§5) Three dose response parameters are calculated for each experimental agent. […]

UO-31 = experiment: NCI 60 cell line screen (SRB), Renal Cancer
Text: as §1, §2, §3, §4, §5

SN12C = experiment: NCI 60 cell line screen (SRB), Renal Cancer
Text: as §1, §2, §3, §4, §5

TK-10 = experiment: NCI 60 cell line screen (SRB), Renal Cancer
Text: as §1, §2, §3, §4, §5

ACHN = experiment: NCI 60 cell line screen (SRB), Renal Cancer
Text: as §1, §2, §3, §4, §5

786-0 = experiment: NCI 60 cell line screen (SRB), Renal Cancer
Text: as §1, §2, §3, §4, §5

HCT-116 = experiment: NCI 60 cell line screen (SRB), Colon Cancer
Text: as §1, §2, §3, §4, §5

HCT-15 = experiment: NCI 60 cell line screen (SRB), Colon Cancer
Text: as §1, §2, §3, §4, §5

SF-268 = experiment: NCI 60 cell line screen (SRB), CNS Cancer
Text: as §1, §2, §3, §4, §5

SNB-75 = experiment: NCI 60 cell line screen (SRB), CNS Cancer
Text: as §1, §2, §3, §4, §5

SNB-19 = experiment: NCI 60 cell line screen (SRB), CNS Cancer
Text: as §1, §2, §3, §4, §5

U251 = experiment: NCI 60 cell line screen (SRB), CNS Cancer
Text: as §1, §2, §3, §4, §5

**Q.** With `COc1cccc(CCNC(=O)CC(c2ccccc2)(c2ccccc2)c2ccccc2)c1` [Compound Z3] as the compound, how does the “Mean Optical Densities” value (CAKI-1; CAKI-1, Log10 Concentration −4.0) read?
**A.** 0.730

**Q.** And the “Mean Optical Densities” value (CAKI-1; CAKI-1, Log10 Concentration −5.0)?
**A.** 0.901

**Q.** What about the “Mean Optical Densities” value (CAKI-1; CAKI-1, Log10 Concentration −6.0) of the same compound?
**A.** 1.184

**Q.** What about the “Mean Optical Densities” value (CAKI-1; CAKI-1, Log10 Concentration −7.0) of the same compound?
**A.** 1.301

**Q.** What about the “Mean Optical Densities” value (CAKI-1; CAKI-1, Log10 Concentration −8.0) of the same compound?
**A.** 1.272

**Q.** And the “Mean Optical Densities” value (UO-31; UO-31, Log10 Concentration −4.0)?
**A.** 0.805

**Q.** What about the “Mean Optical Densities” value (UO-31; UO-31, Log10 Concentration −5.0) of the same compound?
**A.** 0.927

**Q.** What about the “Mean Optical Densities” value (UO-31; UO-31, Log10 Concentration −6.0) of the same compound?
**A.** 1.408

**Q.** What about the “Mean Optical Densities” value (UO-31; UO-31, Log10 Concentration −7.0) of the same compound?
**A.** 1.527

**Q.** What about the “Mean Optical Densities” value (UO-31; UO-31, Log10 Concentration −8.0) of the same compound?
**A.** 1.411

**Q.** What about the “Mean Optical Densities” value (SN12C; Log10 Concentration −4.0) of the same compound?
**A.** 0.676

**Q.** And the “Mean Optical Densities” value (SN12C; Log10 Concentration −5.0)?
**A.** 0.376

**Q.** What about the “Mean Optical Densities” value (SN12C; Log10 Concentration −6.0) of the same compound?
**A.** 0.492

**Q.** And the “Mean Optical Densities” value (SN12C; Log10 Concentration −7.0)?
**A.** 0.529

**Q.** What about the “Mean Optical Densities” value (SN12C; Log10 Concentration −8.0) of the same compound?
**A.** 0.532

**Q.** And the “Mean Optical Densities” value (TK-10; TK-10, Log10 Concentration −4.0)?
**A.** 0.963

**Q.** And the “Mean Optical Densities” value (TK-10; TK-10, Log10 Concentration −5.0)?
**A.** 1.214

**Q.** What about the “Mean Optical Densities” value (TK-10; TK-10, Log10 Concentration −6.0) of the same compound?
**A.** 1.331

**Q.** What about the “Mean Optical Densities” value (TK-10; TK-10, Log10 Concentration −7.0) of the same compound?
**A.** 1.321

**Q.** What about the “Mean Optical Densities” value (TK-10; TK-10, Log10 Concentration −8.0) of the same compound?
**A.** 1.295

**Q.** What about the “Mean Optical Densities” value (ACHN; Log10 Concentration −4.0) of the same compound?
**A.** 0.373

**Q.** What about the “Mean Optical Densities” value (ACHN; Log10 Concentration −5.0) of the same compound?
**A.** 0.511

**Q.** And the “Mean Optical Densities” value (ACHN; Log10 Concentration −6.0)?
**A.** 0.660

**Q.** And the “Mean Optical Densities” value (ACHN; Log10 Concentration −7.0)?
**A.** 0.711

**Q.** And the “Mean Optical Densities” value (ACHN; Log10 Concentration −8.0)?
**A.** 0.681

**Q.** And the “Mean Optical Densities” value (786-0; 786-0, Log10 Concentration −4.0)?
**A.** 0.434

**Q.** And the “Mean Optical Densities” value (786-0; 786-0, Log10 Concentration −5.0)?
**A.** 0.749

**Q.** And the “Mean Optical Densities” value (786-0; 786-0, Log10 Concentration −6.0)?
**A.** 0.998

**Q.** What about the “Mean Optical Densities” value (786-0; 786-0, Log10 Concentration −7.0) of the same compound?
**A.** 1.084

**Q.** What about the “Mean Optical Densities” value (786-0; 786-0, Log10 Concentration −8.0) of the same compound?
**A.** 1.004

**Q.** What about the “Mean Optical Densities” value (HCT-116; HCT-116, Log10 Concentration −4.0) of the same compound?
**A.** 0.212

**Q.** And the “Mean Optical Densities” value (HCT-116; HCT-116, Log10 Concentration −5.0)?
**A.** 0.345

**Q.** What about the “Mean Optical Densities” value (HCT-116; HCT-116, Log10 Concentration −6.0) of the same compound?
**A.** 0.598

**Q.** What about the “Mean Optical Densities” value (HCT-116; HCT-116, Log10 Concentration −7.0) of the same compound?
**A.** 0.673

**Q.** What about the “Mean Optical Densities” value (HCT-116; HCT-116, Log10 Concentration −8.0) of the same compound?
**A.** 0.701

**Q.** And the “Mean Optical Densities” value (HCT-15; HCT-15, Log10 Concentration −4.0)?
**A.** 0.567

**Q.** And the “Mean Optical Densities” value (HCT-15; HCT-15, Log10 Concentration −5.0)?
**A.** 0.599

**Q.** What about the “Mean Optical Densities” value (HCT-15; HCT-15, Log10 Concentration −6.0) of the same compound?
**A.** 0.758

**Q.** And the “Mean Optical Densities” value (HCT-15; HCT-15, Log10 Concentration −7.0)?
**A.** 0.844

**Q.** And the “Mean Optical Densities” value (HCT-15; HCT-15, Log10 Concentration −8.0)?
**A.** 0.867

**Q.** And the “Mean Optical Densities” value (SF-268; SF-268, Log10 Concentration −4.0)?
**A.** 0.896

**Q.** What about the “Mean Optical Densities” value (SF-268; SF-268, Log10 Concentration −5.0) of the same compound?
**A.** 1.039

**Q.** And the “Mean Optical Densities” value (SF-268; SF-268, Log10 Concentration −6.0)?
**A.** 1.373

**Q.** And the “Mean Optical Densities” value (SF-268; SF-268, Log10 Concentration −7.0)?
**A.** 1.468

**Q.** What about the “Mean Optical Densities” value (SF-268; SF-268, Log10 Concentration −8.0) of the same compound?
**A.** 1.402

**Q.** What about the “Mean Optical Densities” value (SNB-75; SNB-75, Log10 Concentration −4.0) of the same compound?
**A.** 0.646

**Q.** What about the “Mean Optical Densities” value (SNB-75; SNB-75, Log10 Concentration −5.0) of the same compound?
**A.** 0.714

**Q.** And the “Mean Optical Densities” value (SNB-75; SNB-75, Log10 Concentration −6.0)?
**A.** 0.700

**Q.** What about the “Mean Optical Densities” value (SNB-75; SNB-75, Log10 Concentration −7.0) of the same compound?
**A.** 0.711

**Q.** What about the “Mean Optical Densities” value (SNB-75; SNB-75, Log10 Concentration −8.0) of the same compound?
**A.** 0.639

**Q.** And the “Mean Optical Densities” value (SNB-19; SNB-19, Log10 Concentration −4.0)?
**A.** 0.857

**Q.** What about the “Mean Optical Densities” value (SNB-19; SNB-19, Log10 Concentration −5.0) of the same compound?
**A.** 1.195

**Q.** And the “Mean Optical Densities” value (SNB-19; SNB-19, Log10 Concentration −6.0)?
**A.** 1.195

**Q.** And the “Mean Optical Densities” value (SNB-19; SNB-19, Log10 Concentration −7.0)?
**A.** 1.306

**Q.** And the “Mean Optical Densities” value (SNB-19; SNB-19, Log10 Concentration −8.0)?
**A.** 1.233

**Q.** What about the “Mean Optical Densities” value (U251; U251, Log10 Concentration −4.0) of the same compound?
**A.** 0.308

**Q.** And the “Mean Optical Densities” value (U251; U251, Log10 Concentration −5.0)?
**A.** 0.506

**Q.** And the “Mean Optical Densities” value (U251; U251, Log10 Concentration −6.0)?
**A.** 0.882

**Q.** And the “Mean Optical Densities” value (U251; U251, Log10 Concentration −7.0)?
**A.** 0.946

**Q.** What about the “Mean Optical Densities” value (U251; U251, Log10 Concentration −8.0) of the same compound?
**A.** 0.899

Source: patent publication US7632972B2, “Compounds and methods for treatment of cancer and modulation of programmed cell death for melanoma and other cancer cells” (The Board of Trustees of the University of Illionis, priority 2003, dated 2009)
